# PubChem BioAssay AID504791 – Drosophila RNAi Screening Center – 2011
# Screen: 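Genes of the fly required for silencing by miRNA, siRNA or endo-siRNA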 (primary screen)
# Cells: Drosophila S2-derived reporter cells
# Reagents: long dsRNA against Drosophila genes, about 150-250 ng dsRNA per well (siRNA assay); about 80-120 ng (miRNA assay)
# Timing: about 5 days (siRNA assay); about 4 days (miRNA assay)
# Challenge: copper sulfate induction of reporters: 25 µM (siRNA assay); 200 mM stated (miRNA assay), 1-2 days before reading
# Read-out: 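Per-well ratio of Renilla over firefly light, expressed relative to that plate's average ratio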
# Direction: siRNA reporter hit score: higher = 3 marks a strong hit with raised ratio; -3 a strong hit with lowered ratio
# Hit rule: 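a well was a first-pass pick when its plate-scaled ratio rose above 1.5 (siRNA assay) or 1.6 (miRNA assay), or dropped below 0.6; a gene counted only if two separate dsRNAs agreed on retest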
# In all, the deposit lists about 23,000 reagents; this is an unselected part of those with a known target gene and a result. Of all reagents, 199 (0.86%) got an active call. 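Plate-scaled ratios behind the calls are not deposited; printed light signals are raw; many rows marked increased or decreased are still called inactive.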 Reagents against one gene are numbered here. A plus sign joins genes that one reagent is predicted to hit.
gene,dsRNA no.,siRNA reporter hit score,stable siRNA reporter change,miRNA reporter change,"stable assay Renilla, run 1 (luminescence)","stable assay firefly, run 1 (luminescence)",Outcome
Tep4 (Thioester-containing protein 4),1,,,,7174,3.27e5,inactive
CG3257,1,,,,7038,1.39e6,inactive
CG3328,1,,,,68085,1.02e6,inactive
CheA46a (Chemosensory protein A 46a),1,,,,4531,4.00e5,inactive
kat80 (katanin 80),1,,,,6012,3.93e5,inactive
kat80 (katanin 80),2,,,,4807,3.82e5,inactive
CG11666,1,,,,11484,6.34e5,inactive
RpL30 (Ribosomal protein L30),1,,,,8610,5.12e5,inactive
CG12974,1,,,,7918,4.65e5,inactive
CG8369,1,,,,6691,4.97e5,inactive
CG15695,1,,,,7199,4.16e5,inactive
CG15387,1,,,,7248,3.97e5,inactive
kek6 (kekkon 6),1,,,,6126,3.71e5,inactive
unpg (unplugged),1,,,,6396,3.57e5,inactive
mRpS23 (mitochondrial ribosomal protein S23),1,,,,5090,5.00e5,inactive
Lapsyn (Leucine-rich repeat activity-regulated protein at synapses),1,,,,1.74e5,2.50e5,inactive
Idgf6 (Imaginal disc growth factor 6),1,,,,11353,4.07e5,inactive
Peritrophin-A (Peritrophin A),1,,,,7106,4.36e5,inactive
CG45067,1,,,,6138,3.89e5,inactive
HP6 (Heterochromatin protein 6),1,,,,7519,3.38e5,inactive
foi (fear-of-intimacy),1,,,reporter ratio raised past the hit cutoff,6896,3.61e5,inactive
foi (fear-of-intimacy),2,,,reporter ratio raised past the hit cutoff,,,inactive
pdgy (pudgy),1,,,,4919,3.75e5,inactive
pdgy (pudgy),2,,,,7862,5.71e5,inactive

The list goes on; the last 2 above are carried over.
gene,dsRNA no.,siRNA reporter hit score,stable siRNA reporter change,miRNA reporter change,"stable assay Renilla, run 1 (luminescence)","stable assay firefly, run 1 (luminescence)",Outcome
pdgy (pudgy),1,,,,4919,3.75e5,inactive
pdgy (pudgy),2,,,,7862,5.71e5,inactive
CG42458,1,,reporter ratio raised past the hit cutoff,,6919,2.10e5,inactive
CG42458,2,,,,4744,2.75e5,inactive
CG42458,3,,,,4803,4.60e5,inactive
CG43333,1,,,,6766,3.87e5,inactive
CG43333,2,,,,6798,5.36e5,inactive
CG18278 + CG30059,1,,,,5448,3.53e5,inactive
CG32195,1,,,,6211,3.35e5,inactive
CG40282 (retired record),1,,,,7046,3.60e5,inactive
CG2182,1,,,,7638,3.94e5,inactive
sun (stunted),1,,,,4511,4.70e5,inactive
CG5916,1,,,,8399,4.39e5,inactive
Sou (Souji),1,,,,6878,3.67e5,inactive
Uch (Ubiquitin carboxy-terminal hydrolase),1,,,,10595,4.24e5,inactive
CG8620,1,,,,5475,3.31e5,inactive
Mrtf (Myocardin-related transcription factor),1,,reporter ratio raised past the hit cutoff,,5187,1.96e5,inactive
Mrtf (Myocardin-related transcription factor),2,,,,4899,2.65e5,inactive
Mrtf (Myocardin-related transcription factor),3,,,,5567,4.52e5,inactive
Mrtf (Myocardin-related transcription factor),4,,,,4111,3.92e5,inactive
CG7763,1,,,,6384,3.86e5,inactive
CG34181,1,,,,5691,5.76e5,inactive
CG8435,1,-3,,,11105,4.57e5,inactive
slow (slowdown),1,,,,7614,4.12e5,inactive
slow (slowdown),2,,,,5235,4.36e5,inactive
Pat1 (Protein interacting with APP tail-1),1,,,,8487,4.69e5,inactive
CanB (Calcineurin B),1,,,,5411,3.28e5,inactive
CngB (Cyclic nucleotide-gated ion channel subunit B),1,,,,7254,1.40e6,inactive
CG13251,1,,,,6975,3.65e5,inactive
CG16879 (retired record),1,,,,5647,4.69e5,inactive
CG16879 (retired record),2,,,,5963,5.12e5,inactive
CG31804,1,,,,5935,5.18e5,inactive
CG14414,1,,,,5403,4.39e5,inactive
RpL36 (Ribosomal protein L36),1,,,,7387,3.87e5,inactive
conv (convoluted),1,,,,6691,4.76e5,inactive
